For data set [1] the following is noted: for change in π of preformed POPE monolayer: monolayer at ~ 25 mN m^−1, compound 0.2 µM; for maximum values of Δπ: preformed POPE monolayers at π ~ 25 mN m^−1, 0.1 then 0.2 µM, n = 3.
For data set [2] the following is noted: compound 50 μM, MLVs POPE/Soy:PE 3:1, control 35.3 ± 0.6 °C.

Each structure is given as a SMILES string.

Regarding `CCCCCCCCCCCCO[C@H]1C[C@H](O)[C@@H](O)[C@H](C)O1` [Compound 1], the “drop in surface pressure π to attain the same A/lipid (compression isotherm)” value in data set [1] (POPE monolayer after injection of compound, 0.2 µM) was ≤ 15 mN m^−1. Moreover, in data set [1], the “change in π of preformed POPE monolayer” value is ~3 mN m^−1 and the “maximum values of Δπ” value is reported as 2.61 ± 0.25 mN m^−1. In addition, in data set [2], the “lamellar to hexagonal phase transition temperature (TH) of the PE binary mixture” value is 32.2 ± 0.8 °C.
With `CCCCCCCCCCCCO[C@@H]1C[C@@H](O)[C@H](O)[C@@H](CO)O1` [Compound 13], in data set [1], the “change in π of preformed POPE monolayer” value is reported as < 0.5 mN m^−1 and the “maximum values of Δπ” value was found to be 0.15 ± 0.06 mN m^−1. The “lamellar to hexagonal phase transition temperature (TH) of the PE binary mixture” value in data set [2] was 35.2 ± 1.1 °C.

The values above are taken from article PMC6242839 (Nature Communications, 2018).
